PubChem BioAssay AID1259405 – NCATS – 2018

- Screen: 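Silenced genes that increase secreted GFP made by CHO cells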 (primary screen)
- Cells: Chinese hamster CHO-K1 ovary cells with stable secreted eGFP expression
- Knock-down reagent: single siRNA against mouse genes, 0.8 pmol siRNA per well (2 µl of 400 nM stock)
- Duration: 3 days
- Detection: 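Per-well intracellular GFP measured by laser scanning cytometry, plus viability from ATP luminescence, each relative to plate median of non-targeting control wells, in %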
- Direction: GFP, % of control: higher = more GFP per well, higher productivity; viability (ATP), % of control: higher = more viable cells (more ATP)
- Rule for the call: 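Called active when intracellular GFP, relative to negative control, is at or above 120%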
In all, the deposit lists about 50,000 reagents; below is an unselected part. About 4,000 of them (8%) count as active. 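Mouse siRNA library applied to hamster cells; one well for each siRNA.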 The numbers tell different reagents against one gene apart.

With knock-down of Trp53inp2 (GeneID 68728) #1, the screen gave GFP, % of control 69.8; viability (ATP), % of control 67.6; inactive.
Trp53inp2 (GeneID 68728) #2 scored GFP, % of control 85; viability (ATP), % of control 110; inactive.
Trp53inp2 (GeneID 68728) #3 gave GFP, % of control 120; viability (ATP), % of control 124; inactive.
After knock-down of Syt5 (GeneID 53420) #1 the results were GFP, % of control 108; viability (ATP), % of control 86.8; inactive.
Against Syt5 (GeneID 53420) #2, the values are GFP, % of control 95.7; viability (ATP), % of control 104; inactive.
Knock-down of Fbxw15 (GeneID 382105) #1 gave: GFP, % of control 75.8; viability (ATP), % of control 70; inactive.
For Fbxw15 (GeneID 382105) #2, the entry reads GFP, % of control 74.1; viability (ATP), % of control 52.9; inactive.
Knock-down of Fbxw15 (GeneID 382105) #3 came out at: GFP, % of control 72.1; viability (ATP), % of control 94.3; inactive.
With knock-down of Hpgds (GeneID 54486) #1 the results were GFP, % of control 82.1; viability (ATP), % of control 100; inactive.
Hpgds (GeneID 54486) #2 gave GFP, % of control 72.4; viability (ATP), % of control 53.7; inactive.
Silencing of Hpgds (GeneID 54486) #3 gave: GFP, % of control 78.2; viability (ATP), % of control 88.7; inactive.
St8sia5 (GeneID 225742) #1 showed GFP, % of control 105; viability (ATP), % of control 79.5; inactive.
St8sia5 (GeneID 225742) #2 showed GFP, % of control 87.3; viability (ATP), % of control 41.4; inactive.
With knock-down of St8sia5 (GeneID 225742) #3 the results were GFP, % of control 97.4; viability (ATP), % of control 86.9; inactive.
Silencing of Tti2 (GeneID 234138) #1 gave: GFP, % of control 42.4; viability (ATP), % of control 68; inactive.
Against Tti2 (GeneID 234138) #2 the deposit lists GFP, % of control 54; viability (ATP), % of control 78; inactive.
Tti2 (GeneID 234138) #3 scored GFP, % of control 107; viability (ATP), % of control 140; inactive.
Against Nifk (GeneID 67949) #1, the values are GFP, % of control 75.9; viability (ATP), % of control 99; inactive.
Nifk (GeneID 67949) #2 scored GFP, % of control 96.7; viability (ATP), % of control 50.7; inactive.
Silencing of Nifk (GeneID 67949) #3 came out at: GFP, % of control 92; viability (ATP), % of control 107; inactive.
Knock-down of Hydin (GeneID 244653) #1 resulted in: GFP, % of control 40.9; viability (ATP), % of control 52.4; inactive.
Hydin (GeneID 244653) #2 gave GFP, % of control 87.6; viability (ATP), % of control 94.3; inactive.
After knock-down of Hydin (GeneID 244653) #3, the screen gave GFP, % of control 70.8; viability (ATP), % of control 84.1; inactive.
Scgb2b24 (GeneID 233090) #1 gave GFP, % of control 48.7; viability (ATP), % of control 83.5; inactive.
Scgb2b24 (GeneID 233090) #2 showed GFP, % of control 83.6; viability (ATP), % of control 85; inactive.
Scgb2b24 (GeneID 233090) #3 scored GFP, % of control 107; viability (ATP), % of control 87.4; inactive.
Against Telo2 (GeneID 71718) #1, the values are GFP, % of control 72.8; viability (ATP), % of control 116; inactive.
Depletion of Telo2 (GeneID 71718) #2 resulted in: GFP, % of control 28.6; viability (ATP), % of control 53.1; inactive.
With knock-down of Telo2 (GeneID 71718) #3 the results were GFP, % of control 45.1; viability (ATP), % of control 44.4; inactive.
Depletion of Hacd3 (GeneID 57874) #1 came out at: GFP, % of control 83; viability (ATP), % of control 37.9; inactive.
Hacd3 (GeneID 57874) #2 scored GFP, % of control 43.6; viability (ATP), % of control 39.3; inactive.
Depletion of Hacd3 (GeneID 57874) #3 came out at: GFP, % of control 85.5; viability (ATP), % of control 103; inactive.
After knock-down of Dusp16 (GeneID 70686) #1, the record shows GFP, % of control 70.6; viability (ATP), % of control 74; inactive.
Dusp16 (GeneID 70686) #2 gave GFP, % of control 82.2; viability (ATP), % of control 71.8; inactive.
With knock-down of Ly6i (GeneID 57248) #1 the results were GFP, % of control 66.2; viability (ATP), % of control 68.4; inactive.
After knock-down of Ly6i (GeneID 57248) #2, the record shows GFP, % of control 123; viability (ATP), % of control 82.5; active.
Knock-down of Ly6i (GeneID 57248) #3 resulted in: GFP, % of control 122; viability (ATP), % of control 67.3; active.
For Csk (GeneID 12988), the values are GFP, % of control 63.4; viability (ATP), % of control 35.2; inactive.
For Chad (GeneID 12643) #1, the values are GFP, % of control 47.2; viability (ATP), % of control 31.7; inactive.
Knock-down of Chad (GeneID 12643) #2 resulted in: GFP, % of control 68; viability (ATP), % of control 97.5; inactive.
Silencing of Chad (GeneID 12643) #3 gave: GFP, % of control 69.8; viability (ATP), % of control 43.6; inactive.
Against Slc7a3 (GeneID 11989) #1, the values are GFP, % of control 63.8; viability (ATP), % of control 48; inactive.
Against Slc7a3 (GeneID 11989) #2, the entry reads GFP, % of control 73.7; viability (ATP), % of control 72.8; inactive.
Silencing of Slc7a3 (GeneID 11989) #3 came out at: GFP, % of control 75.8; viability (ATP), % of control 81.3; inactive.
Map3k1 (GeneID 26401) showed GFP, % of control 69.4; viability (ATP), % of control 73.6; inactive.
Cbx1 (GeneID 12412) #1 scored GFP, % of control 110; viability (ATP), % of control 99; inactive.
Cbx1 (GeneID 12412) #2 showed GFP, % of control 70.2; viability (ATP), % of control 67.9; inactive.
Against Cbx1 (GeneID 12412) #3, the entry reads GFP, % of control 64.7; viability (ATP), % of control 77.8; inactive.
Against Mansc1 (GeneID 67729) #1, the values are GFP, % of control 74.3; viability (ATP), % of control 55.2; inactive.
Mansc1 (GeneID 67729) #2 gave GFP, % of control 43; viability (ATP), % of control 77; inactive.
For Mansc1 (GeneID 67729) #3, the entry reads GFP, % of control 104; viability (ATP), % of control 40.4; inactive.
With knock-down of Stx5a (GeneID 56389) #1, the record shows GFP, % of control 155; viability (ATP), % of control 126; active.
Knock-down of Stx5a (GeneID 56389) #2 resulted in: GFP, % of control 88.1; viability (ATP), % of control 82; inactive.
